Test results from PubChem BioAssay AID1508600 (Functional Genomics Laboratory (NCATS/FGL), 2020).
Hit rate of the full screen: of about 53,000 sequences, about 3,700 (7%) were called active.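 Rule for the calls: active = gene knockdowns whose robust z-score for IL-1 alpha signal is at least 2 or at most -2, so actives lie on both sides; inactive = the rest.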 The list shows a part of the results.

Assay: Components of the Cytosolic LPS Sensing Pathway: Gene Identification via Genome-wide siRNA Screen;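 note: robust z of the log signal after scaling to non-targeting control siRNA wells of the plate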
Conditions: RAW264.7 macrophages, IL-1a HTRF, actives lie on both sides, screened at 100 nM (by protocol), cells primed 5 h with Pam3CSK4 first
In short: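 RAW264.7; siRNA 100 nM final, RNAiMAX, 48h 37 degrees C; Pam3CSK4 5 h; LipidA + TransIT-TKO 24 h; IL-1a HTRF; CellTiter-Glo viability; robust z vs negative-control median.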
With GGAAGACUACGAUCAAUGGTT against Pafah2 the z-score was inactive: 1.55. For GGAAUGUUGACUUAAAGGATT against Crot, the z-score was inactive: 0.709. With GGACAAGACCAGCAAAUACTT against Six6 the z-score was inactive: -1.58. For GGCUUUGUAUUUGUUUAUGTT against Gdap1, the z-score was inactive: -0.296. With CCCAAUACAUGAGCUUCUGTT against Ch25h the z-score was inactive: -0.209. For GCUUAUUCCCAUAAAUAGATT against Slc9b1, the z-score was inactive: 0.538. For GCAGCAGGAUUUCUCCAUUTT against Mlx, the z-score was inactive: -1.35. For GGUCAUCUCAGACCUCCUCTT against Pde6a, the z-score was inactive: -0.275. With GGCUGCUCAAAAAGAACAUTT against Kif21b the z-score was inactive: 0.645. For GCUCUCAUUAGCAUUAUCGTT against Gria1, the z-score was inactive: 0.21. For GGCUAUAAUGAACCAGCUGTT against Ubr3, the z-score was inactive: -0.208. In the case of GCUUGAGGAAUUUACGGCGTT against Cetn3, the z-score is reported as inactive: -0.0998. In the case of CCCUAGUUUAUCUCCGGAUTT against Lhx1, the z-score is reported as inactive: 1.15. In the case of GCUACAUUUCUACUCAAAGTT against Dkk2, the z-score is reported as inactive: 0.324. For GGGAACUCGACAAAGAAAUTT against Cfap61, the z-score was inactive: 0.579. With GGCUCUGAACGUAUCCUACTT against Card10 the z-score was inactive: -0.474. In the case of GGCUUUUCUAUGUUUGAGATT against Pde6d, the z-score is reported as inactive: 0.107. With CCACUGCUUAAUCCUAUGATT against Olfr741 the z-score was inactive: -1.47. In the case of GGUGGCUAGUUUUAUUACUTT against Thtpa, the z-score is reported as inactive: -0.296. With CCUACUCUCUCGUAGACUCTT against Rragb the z-score was inactive: -0.697. For GGCCAGGAGAAGAAGAUACTT against Tet2, the z-score was inactive: -0.261. With GGGCUCCUGUCUAAAGGAATT against Cd200r2 the z-score was inactive: -0.127. In the case of GGAGUCCUUGGGAUAAUAATT against Zfp300, the z-score is reported as inactive: -1.67. For GGUAGAGUUGGCUUUAUGGTT against Rhoa, the z-score was inactive: 0.682. In the case of GGGUUAUAAGAAAAAGUACTT against Krt82, the z-score is reported as inactive: -1.14. With GCUGAAUUCAUUCAUAGCCTT against Cyp2d26 the z-score was inactive: -0.55. For GGGAAAUAAGUCUCGAACGTT against Kif13a, the z-score was inactive: 0.554. In the case of GGGUGUUCCUAUCUCCUUCTT against Angptl6, the z-score is reported as inactive: -0.161. With GCCAAGGUGGAAUUUUUGGTT against Gpx8 the z-score was inactive: 0.139. For CCUAUCUUCCUGAAUACAUTT against Aqp7, the z-score was active: 2.71. With GGAUGAGGAUGACUUUGAGTT against Tnk2 the z-score was inactive: 0.584. With GGUUCCACUCAACUGAAGATT against Actl7b the z-score was inactive: -0.123. For GCAAAUGGAUCACAGGCCUTT against Nle1, the z-score was inactive: 0.527. In the case of GCUACGUUUACUGACCACATT against Bcat1, the z-score is reported as inactive: 1.55. For CGGCUUCCCAAAAGAUGUGTT against Aire, the z-score was inactive: -1.72. With GGAGCUAUGGCUCAUACAUTT against Spire1 the z-score was inactive: 1.76. For GGUGUUGUUUCGAAUUAUUTT against Xrn1, the z-score was inactive: 0.44. For CGUGGACGGAAAUGUUAAUTT against Trpc3, the z-score was inactive: -0.29. With GGAUUUUUGUGCAGAGUUATT against Hykk the z-score was inactive: -0.834. For GGAAAAAAAAAUGUCCUUGTT against Rit2, the z-score was inactive: -0.0059. In the case of GGACCAGCUUUUUAAUGUUTT against Prpsap2, the z-score is reported as inactive: 0.373. For GGCAUUUGGUCUUCAUAAATT against Gask1b, the z-score was inactive: -0.58. With CGGAUGAAAGUGUCUUGAUTT against Slbp the z-score was inactive: -0.363. With GGAAGAACACAAAACUGACTT against Cdkn1b the z-score was inactive: -0.463. With GGAAAGACCACCAAAUCCCTT against Dpy30 the z-score was inactive: 1.48. For CGAUGGUGUUUUUUGGCUATT against Svopl, the z-score was inactive: -0.366. For GGAAGGACAGUCUGCUCAUTT against Ripor1, the z-score was inactive: -0.91. With GGAGCUGUUUCUGUUAUUGTT against F8a the z-score was inactive: -0.35. In the case of GGGCACAUAUAAACUUAUUTT against Dnaic1, the z-score is reported as inactive: 0.253. For GCGCAUACCUGUGUGUCAUTT against Tyk2, the z-score was inactive: -0.0474. With “CGUACUUGCCUAUGUAUAGTT against A830031A19Rik” the z-score was inactive: -0.66. For GCUCUAAGGGCUGUUGCUATT against Cep20, the z-score was inactive: 1.74. In the case of GGGAUUUUUGAAACUGAAGTT against Glod4, the z-score is reported as active: -2.78. For GGUACUGUUUGCAUUUAUUTT against Ormdl1, the z-score was inactive: 0.534. In the case of GCUAAUACGAUUUACUUUGTT against Cntn6, the z-score is reported as inactive: 0.586. In the case of GCUAAUAUUAGGCUACAUCTT against Evi2a, the z-score is reported as inactive: -0.508. In the case of CGCACUGAGUCUGAAUAUGTT against Hibch, the z-score is reported as inactive: -0.463. In the case of GGAAAUCACAGAAGGAGAUTT against Fxr2, the z-score is reported as inactive: -1.17. For GCACUAAUCAAUAUCUAGGTT against Klf8, the z-score was inactive: 0.693. With GGUCAAAAACCACAGAAUATT against Mob1a the z-score was inactive: 0.631. For CGAAAUGCCUGAAAACUUCTT against Palmd, the z-score was inactive: 1.61. With GCCACUCCAUAUGCCAUAGTT against Brsk2 the z-score was inactive: 1.7. For GGACACCAAAAAGAAAGAATT against Ehd3, the z-score was inactive: -0.532. With GCUGUUAUUUAGGUUUCAGTT against Cxcl2 the z-score was inactive: 0.521. In the case of GGUAAUAGGCAAAGAUUUATT against Hdac9, the z-score is reported as inactive: 0.777. With GGAGGAGAACACCUUGAAUTT against Trpc1 the z-score was inactive: 0.0324. With CCCUCACAAUGAUCGAUUUTT against Tkt the z-score was inactive: -0.885. With GGUGAUACCAUCACUUUGATT against Mark2 the z-score was inactive: 0.173. With GGACGAAUUCUGAUGUCUATT against Nenf the z-score was inactive: -0.356. In the case of CGAUAUGUGUUUGUAAUGGTT against Atp6v1d, the z-score is reported as inactive: -0.853. With GGACAGAUUACAUCACUUCTT against Gemin2 the z-score was inactive: -1.85. With GGUCCCAGUCAUUAUCCACTT against Gdap1l1 the z-score was active: 2.43. In the case of GGAGCAGAAAAUCGUUGUGTT against Rpl34, the z-score is reported as inactive: 1.37. For GGGAUCAAGGCUAGAAGAGTT against AY702102, the z-score was inactive: 0.623. With CCGUUGUAUAUACCAGUAUTT against Syt1 the z-score was inactive: 0.218. With GCACAACUCUGUUCUGUUGTT against Olfr491 the z-score was inactive: -0.481. With GCAUUGGUGUUUAGUUGGUTT against Gdf2 the z-score was inactive: 1.11. With GCUGAGUUAUCGUUUAUGATT against Cldn18 the z-score was inactive: -0.259. In the case of GGUACACUGCUUAUUGGUATT against Olfr857, the z-score is reported as inactive: 0.761. For GGGACGAUGACAAGAACAATT against Mcfd2, the z-score was inactive: 1.19. For GGUGUUAGAAAGAGACCAGTT against Vamp3, the z-score was inactive: 0.725. With GGCCCAGGAGAUUUUCCAATT against Proc the z-score was inactive: 1.71. For GGUUGUUUUGGAAUUGAUATT against Smu1, the z-score was active: -2.82. For GGUGCGAGUGGAAUUCAUGTT against Rps28, the z-score was inactive: 0.39. For GGGUUUUGUCUUAAUGAAUTT against Scn10a, the z-score was inactive: -0.478. With GCAUGACAAAUCUAAAAAGTT against Pcdh7 the z-score was inactive: -0.137. With GGCUUAGGUGCCACAUUCUTT against Ggt6 the z-score was inactive: 0.414. With GCCUGUAGCAGAGAACUUUTT against Tmem59l the z-score was inactive: 1.1. For CCGUGAAUAAGGUCAUCUUTT against Prss39, the z-score was inactive: 0.22. For GUUGGAGGAGAAACUCUGGTT against Hbb-bh1, the z-score was inactive: 1.03. For GGAAUUGAUUACUAUUACCTT against Ecpas, the z-score was inactive: 1.97. With CCUUGGUGUGCAUUGGAUGTT against Fbxo15 the z-score was inactive: -1.7. For GCGGCUCCAUCAGAAAAUGTT against Htatip2, the z-score was inactive: 0.526. With GCCUGUAAGAUACUGUACATT against Bbc3 the z-score was inactive: 0.592. For CCACAGCUAAAGAAUCUUUTT against Spidr, the z-score was inactive: -1.88. For CGAGGGUCUGAAAAAUUACTT against Ighg, the z-score was inactive: 1.28. In the case of GGAUAUUGAUGUUUCAAGUTT against Neo1, the z-score is reported as inactive: -0.241. With GGUGUUGAGAUCCACAAGGTT against Tceanc2 the z-score was active: -2.44. With CCACCUGACUUUUGGAAGATT against Coro1b the z-score was inactive: -1.8. In the case of GGACCAUGUACAGGACUUUTT against Thap7, the z-score is reported as inactive: -1.08. In the case of GGCCCAAGGAAUAAUCAAGTT against Satb2, the z-score is reported as active: 2.48. In the case of GCAGUGAGACUUUUAAUAGTT against Snx17, the z-score is reported as inactive: 0.284. With GGAAAUGGCAAAUUCAACUTT against Vcan the z-score was inactive: 0.322. With GGUGGUGUAUUCUUUUUGATT against Ube2d3 the z-score was inactive: -0.746. With GCUCCAAGUGUUAAAAGAGTT against Eif2ak1 the z-score was inactive: -0.127. In the case of CCACCUACUACAGAUAUGCTT against Brwd1, the z-score is reported as inactive: -0.0474. With GGAUUGUUUGUCGAGUUUATT against Mknk2 the z-score was inactive: 1.6. For GGUACUGAUUACUCUGUAUTT against Mrps17, the z-score was inactive: -0.388.
